## Library screening results

The values are deposited in ChEMBL (CHEMBL3988442, “University of Dundee, Small-Polar-MMV Screening Library” (2021)).

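Viability assay of Plasmodium falciparum sporozoites; the read-out is not stated. The concentration is filed as 10 mM, unlikely as a test dose, so the dose is not known. Higher reads as lower viability (inferred: compounds with an IC50 in retests scored well above the rest). Strong results were mostly tested again. About 34,000 compounds were tested under these conditions; 0.84% (about 280) showed 50% or more at least once.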

Each number is a percent effect as filed.
How 0% and 100% were set is not recorded. Most values in the screen are low, and negative values occur.
Compounds were drawn at random from those tested, without regard to their results.
Two or more numbers in one place are separate tests of the same structure; such repeats can differ widely.

| compound | percent effect |
|---|---|
| `Cc1nc(C2CCCNC2)cc(N(Cc2c(C)nn(C)c2C)C2CC2)n1` (stereo unspecified) | -3.684% |
| `CC(C)(C)C(=O)NCCCn1cncn1` | -6.91% |
| `CCOc1ccc(C(=O)N2CCCC(n3nc(C)nc3C)C2)cc1` (stereo unspecified) | -0.2681% |
| `CC1(C)COCCN1C(=O)CCc1nc(-c2ccccn2)no1` | 24.48% |
| `Cc1cc(CNC2CCCN(Cc3noc(C4CC4)n3)C2)on1` (stereo unspecified) | 13.73% |
| `Cc1nnc(SCC(=O)c2cc3c(cc2Cl)NC(=O)C3)o1` | 1.907% |
| `Cc1ccsc1CN(Cc1cccnc1)C1CC(C)(C)NC(C)(C)C1.O=C(O)CC(O)(CC(=O)O)C(=O)O` | 9.038% |
| `OC(CNC1CCOCC1)c1ccc(Cl)c(F)c1` (stereo unspecified) | 3.259% |
| `[H][C@]12CC[C@]([H])(CN(C3Cc4ccccc4C3)C1)N(Cc1cc(C)no1)C2` | -3.094% |
| `N#Cc1cccnc1N1CCCN(C(=O)CCn2cccn2)CC1` | 1.524% |
| `CNC(=O)Cn1c(CO)cnc1SCc1ccccc1Cl` | -4.675% and -20.03% |
| `CCC1CCCCN1C(=O)c1ccnc(N(C)C)c1` (stereo unspecified) | 0.6463% |
| `CN(C)c1ncc2c(c1C(=O)O)CCN(Cc1ccco1)C2.O=C(O)C(F)(F)F.O=C(O)C(F)(F)F` | 6.239% |
| `[H][C@@]12CCCO[C@]1([H])[C@H](OCC1CCCC1)CN2C(=O)c1ccnnc1` | -5.862% |
| `CCOCC(=O)N1C[C@@H](O)[C@H](NC(C)=O)C1` | 7.868% |
| `Cn1cc(Br)c(=O)c(NS(=O)(=O)c2ccc(F)cc2)c1` | -1.294% |
| `COc1ccc(CN2CCC3(CC2)CCN(c2cnn(C)c2)C3=O)cc1.O=C(O)C(F)(F)F` | 0.5945% |
| `Cc1noc(NC(=O)c2ccc(C#N)cc2)n1` | -9.066% |
| `CCn1nc(C)cc1C(=O)N1CCOc2cc(C)ccc21` | -2.109% |
| `Cc1ccc2c(c1)C(NC(=O)N(C)C)CC21CCN(CC2CC2)CC1.O=C(O)C(F)(F)F` (stereo unspecified) | -13.83% |
| `Cc1cnc(C(=O)NCc2ccnc(N(C)C)c2)cn1` | 4.864% |
| `Cc1ccc(Nc2nccc(C3CN(C(C)C)C3)n2)nc1` | 10.21% |
| `Cc1cc(CNC(=O)CN2CCCC(Cn3cncn3)C2)ccc1F` (stereo unspecified) | -1.117% |
| `CCNC(=O)c1cc(OC)c2cc(F)cc(C)c2n1` | 1.557% |
| `O=C(Cc1ccccc1)N1CCC2(CC1)CC(Nc1cnccn1)CO2` (stereo unspecified) | -3.12% |
| `O=C(CCCc1ccc(F)cc1)N1C[C@@H](CN2CCOCC2)[C@@H](CO)C1` | 2.952% |
| `Fc1ccc(OCc2noc(CN3CCc4cncnc4C3)n2)cc1` | -0.9893% |
| `Cc1ccsc1CN1CCn2c(COc3cccnc3)cnc2C1C.O=C(O)C(F)(F)F.O=C(O)C(F)(F)F` (stereo unspecified) | 17.05% |
| `Cc1ccsc1C(=O)N(C)Cc1ccncc1` | 2.284% |
| `CCNC(=O)CN1CCN(Cc2nc3c(F)cccc3n2CC)CC1` | 2.483% |
| `O=C(O)C(F)(F)F.O=C(O)C(F)(F)F.O=C(O)C(F)(F)F.c1ccc(Cn2cc3c(n2)C(CNCc2ccco2)OCC3)nc1` (stereo unspecified) | -3.157% |
| `CCn1cnnc1CNC(=O)N1CCC(Cc2cccnc2)CC1` | -3.468% |
| `O=C(O)C(F)(F)F.O=C1CCC2(CCCN(Cc3ccccc3F)C2)N1CC1CC1` (stereo unspecified) | 5.304% |
| `[H][C@]12C[C@H](NC(=O)c3ccccn3)[C@@]1([H])CN(S(=O)(=O)c1ccc(C)cc1)C2` | 2.967% |
| `CCCc1noc(CCC(=O)N2CCCC2c2cccc(OC)c2)n1` (stereo unspecified) | 2.136% |
| `CSCC(C)CNC(=O)N1CCSC(C)(C)C1` (stereo unspecified) | 1.669% |
| `CCc1nc(C2CCCN2Cc2noc(Cc3ccccc3)n2)no1` (stereo unspecified) | 5.128% |
| `Cc1nc(CC(=O)N2CCCC(n3ccnc3C(C)C)C2)cs1` (stereo unspecified) | -3.321% |
| `N#Cc1ccc(CNCCS(=O)(=O)N2CCc3ccccc32)cc1` | -7.171% |
| `O=c1cc(Cn2ccnc2)nc2n1CCCN(S(=O)(=O)C1CC1)C2` | 1.969% |
| `COc1cc(CCC(=O)NC(C)(C)C)ccc1OCC(F)(F)F` | 2.603% |
| `CC(C)c1nccn1C1CCCN(C(=O)CCc2cnn(C)c2)C1` (stereo unspecified) | 11.58% |
| `CN1CCN(Cc2cccnc2)C2(CCN(c3ncc(F)cn3)C2)C1=O.O=C(O)C(F)(F)F.O=C(O)C(F)(F)F` (stereo unspecified) | -3.926% |
| `CCc1nc(CN2CCOC(CN(C)c3cccnn3)C2)cs1` (stereo unspecified) | -17.61% |
| `CCN(CCC1CCN(C(=O)NCc2nncn2CC)CC1)CC1CC1` | 8.748% |
| `O=C(O)C(F)(F)F.[H][C@]12CN(Cc3ccncc3)C(=O)[C@@]1([H])CN(c1ncccn1)C2` | -23.22% |
| `CSCC(C)(O)CNc1ncccc1C(F)(F)F` (stereo unspecified) | -0.7769% |
| `Cc1cc(C)n(CC2CCCN2C(=O)c2cn[nH]c2C)n1` (stereo unspecified) | -9.562% |
| `CO[C@@]1(C)C[C@@H](O)C12CCN(C(=O)CCn1c(C)cccc1=O)CC2` | 1.754% |
| `[H][C@@]12CCCO[C@]1([H])[C@H](NC(=O)c1cnn(C)c1)CN2Cc1ccoc1` | -0.1751% |
| `CC(C)n1ncc2c1NC(=O)CSC2C(C)(C)C` (stereo unspecified) | -17.54% |
| `O=C(CCOCC(F)(F)F)NS(=O)(=O)c1cccnc1` | 0.7769% |
| `CN(CC(=O)N1CCCC1c1cnn(C)c1)Cc1ccccc1` (stereo unspecified) | 10.28% |
| `COc1ccccc1C(=O)NCc1n[nH]c(C)n1` | -2.081% |
| `CN(C)c1cccc(C2CCN(C3COCC3O)CC2)n1` (stereo unspecified) | -2.685% |
| `COc1ccc(OC)c(C(O)CN2CCC(N3CCC(C)CC3)CC2)c1` (stereo unspecified) | 2.403% |
| `CCc1ccc(C(=O)N2CCCC(n3nc(C)nc3C)C2)o1` (stereo unspecified) | 0.2612% |
| `CCOCC1CN(C(=O)c2ccoc2)Cc2cnn(C)c21` (stereo unspecified) | 6.932% |
| `Cl.Cl.[H][C@@]12CNC[C@]1([H])OCCN2Cc1c(C)noc1C` | 0.3356% |
| `COCC(=O)N1CCC2(CCCN(Cc3cc(OC)ccc3F)C2)C1` (stereo unspecified) | -7.556% and -10.33% |
| `CCN(CC)Cc1ccccc1NCc1c(C)noc1C` | 2.485% |
| `Cn1ccc(C(=O)NCc2cccc(CN3CCCC3)c2)cc1=O` | 11.38% |
| `Cc1nn(C)c2c(N3CCCC3)nc(C3CC3)nc12` | -26.65% and -27.13% |
| `O=C(CCc1ccsc1)Nc1cccnc1N1CCCC1` | -5.117% |
| `Cc1ncncc1C(=O)N1CCCC(n2cccn2)C1` (stereo unspecified) | 16.5% |
| `O=C(O)C(F)(F)F.[H][C@@]12COC[C@]1(COc1cccnc1)CN(C(=O)c1ccc(F)cc1)C2` | 10.62% |
| `Cc1nn(C)c(C)c1C1COCCN1C(=O)c1ccccc1` (stereo unspecified) | -1.635% |
| `CO[C@H]1CN(C(=O)c2ccc3oc(C)cc3c2)C[C@@]12CCCO2` | -1.506% |
| `Cc1ccc(C)n1-c1c(C(=O)NCC(C)Cn2cccn2)cnn1C` (stereo unspecified) | 5.54% |
| `CC(C)N(Cc1nc2c(cnn2C)c(=O)[nH]1)c1ccccc1` | 0.9662% |
| `Cc1cc(=O)[nH]c(=O)n1COCCOCc1ccccc1` | -11.08% |
| `CN1CCOC[C@H]1c1nc(C(C)(C)C)c[nH]1` | -12.15% and -14.29% |
| `CCC(=O)N(C)C1CCN(Cc2ncc(C)c(OC)c2C)CC1` | 4.906% |
| `Cc1ccccc1CSc1nc(N)cc(N2CCC(CC(N)=O)CC2)n1` | -4.142% |
| `CCOc1ccccc1C(CC(=O)Nc1ccccn1)NC(C)=O` (stereo unspecified) | 2.284% |
| `Cc1noc(C)c1CCC(=O)N1CCCC(n2ccnc2C)C1` (stereo unspecified) | -12.02% |
| `Cc1ccc(Oc2ccc(NC(=O)NCC3CCOC3)cn2)cc1C` (stereo unspecified) | 4.509% |

For reference, 8 entries once more:

| compound | percent effect |
|---|---|
| `COc1ccc(OC)c(C(O)CN2CCC(N3CCC(C)CC3)CC2)c1` (stereo unspecified) | 2.403% |
| `CN(CC(=O)N1CCCC1c1cnn(C)c1)Cc1ccccc1` (stereo unspecified) | 10.28% |
| `Cc1cc(=O)[nH]c(=O)n1COCCOCc1ccccc1` | -11.08% |
| `N#Cc1cccnc1N1CCCN(C(=O)CCn2cccn2)CC1` | 1.524% |
| `CCOCC(=O)N1C[C@@H](O)[C@H](NC(C)=O)C1` | 7.868% |
| `Cc1ccc(C)n1-c1c(C(=O)NCC(C)Cn2cccn2)cnn1C` (stereo unspecified) | 5.54% |
| `Cc1nc(CC(=O)N2CCCC(n3ccnc3C(C)C)C2)cs1` (stereo unspecified) | -3.321% |
| `CCCc1noc(CCC(=O)N2CCCC2c2cccc(OC)c2)n1` (stereo unspecified) | 2.136% |